Source: PubChem BioAssay AID686938 (Drosophila RNAi Screening Center, 2013)
Screen: 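Looking for CRAC channel components and the factors controlling them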 (primary screen). Cell system: Drosophila S2R+ cells. Knock-down reagent: long dsRNA against Drosophila genes, about 0.25 µg dsRNA per well, roughly 10,000 cells. Duration: 5 days of knock-down before the calcium assay. Treatment: thapsigargin (SERCA pump blocker) to empty calcium stores; entry signal taken 4 min after adding it. Measurement: 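Duplicate raw fluo-4 intensities per well from a plate reader, at rest and four minutes after thapsigargin emptied calcium stores; entry-to-rest ratio filled for only some wells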. Direction: calcium entry signal: higher = stronger calcium signal after store depletion; resting calcium signal: higher = higher resting calcium signal. Units: calcium entry signal in fluorescence units; resting calcium signal in fluorescence units. Active means: 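Hit if the duplicate-averaged plate z-score for entry over resting signal is under −3; wells with weak total dye signal (Fmax z < −2) or more than 5 off-targets removed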. Calls: active = strongly reduced calcium entry; inactive = no strong reduction.
The screen tested about 23,000 reagents; below is an unselected part of those that have a named target and a result. In the full data, 75 (0.33%) are marked active. 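Raw plate signals without normalisation; calls rest on plate z-scores that were not deposited; ratio present for only 364 wells.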 Entries without a mark were called inactive. Not given: the dose of the treatment.

CG3634 [DRSC11747]
- calcium entry signal, replicate 1: 3.46e7
- calcium entry signal, replicate 2: 4.88e7
- resting calcium signal, replicate 1: 1.80e7
- resting calcium signal, replicate 2: 2.29e7

CanB (Calcineurin B) [DRSC18449]
- calcium entry signal, replicate 1: 2.67e7
- calcium entry signal, replicate 2: 3.17e7
- resting calcium signal, replicate 1: 1.33e7
- resting calcium signal, replicate 2: 1.45e7

CG14877 [DRSC15001]
- calcium entry signal, replicate 1: 3.93e7
- calcium entry signal, replicate 2: 4.34e7
- resting calcium signal, replicate 1: 1.85e7
- resting calcium signal, replicate 2: 5.57e7

Cpr65Av (Cuticular protein 65Av) [DRSC09727]
- calcium entry signal, replicate 1: 2.90e7
- calcium entry signal, replicate 2: 5.85e7
- resting calcium signal, replicate 1: 1.40e7
- resting calcium signal, replicate 2: 2.17e7

bcd (bicoid) [DRSC12624]
- calcium entry signal, replicate 1: 3.96e7
- calcium entry signal, replicate 2: 4.14e7
- resting calcium signal, replicate 1: 1.57e7
- resting calcium signal, replicate 2: 1.94e7

Caf1-180 (Chromatin assembly factor 1, p180 subunit) [DRSC17807]
- calcium entry signal, replicate 1: 2.07e7
- calcium entry signal, replicate 2: 2.24e7
- resting calcium signal, replicate 1: 1.19e7
- resting calcium signal, replicate 2: 1.22e7

CoRest [DRSC19881]
- calcium entry signal, replicate 1: 3.13e7
- calcium entry signal, replicate 2: 3.75e7
- resting calcium signal, replicate 1: 1.50e7
- resting calcium signal, replicate 2: 1.71e7

CoRest [DRSC21626]
- calcium entry signal, replicate 1: 3.81e7
- calcium entry signal, replicate 2: 3.92e7
- resting calcium signal, replicate 1: 2.09e7
- resting calcium signal, replicate 2: 1.90e7

CoRest [DRSC22305]
- calcium entry signal, replicate 1: 2.91e7
- calcium entry signal, replicate 2: 2.98e7
- resting calcium signal, replicate 1: 1.40e7
- resting calcium signal, replicate 2: 1.74e7

tant (tantalus) [DRSC11401]
- calcium entry signal, replicate 1: 1.85e7
- calcium entry signal, replicate 2: 3.23e7
- resting calcium signal, replicate 1: 9.80e6
- resting calcium signal, replicate 2: 1.30e7

2 successive records from above, for reference:
bcd (bicoid) [DRSC12624]
- calcium entry signal, replicate 1: 3.96e7
- calcium entry signal, replicate 2: 4.14e7
- resting calcium signal, replicate 1: 1.57e7
- resting calcium signal, replicate 2: 1.94e7

Caf1-180 (Chromatin assembly factor 1, p180 subunit) [DRSC17807]
- calcium entry signal, replicate 1: 2.07e7
- calcium entry signal, replicate 2: 2.24e7
- resting calcium signal, replicate 1: 1.19e7
- resting calcium signal, replicate 2: 1.22e7

Continued.
Osi14 (Osiris 14) [DRSC12368]
- calcium entry signal, replicate 1: 3.33e7
- calcium entry signal, replicate 2: 1.80e7
- resting calcium signal, replicate 1: 1.55e7
- resting calcium signal, replicate 2: 9.58e6

Kah (Kahuli) [DRSC07887]
- calcium entry signal, replicate 1: 3.87e7
- calcium entry signal, replicate 2: 4.58e7
- resting calcium signal, replicate 1: 2.00e7
- resting calcium signal, replicate 2: 2.11e7

Kah (Kahuli) [DRSC08515]
- calcium entry signal, replicate 1: 4.10e7
- calcium entry signal, replicate 2: 4.04e7
- resting calcium signal, replicate 1: 2.16e7
- resting calcium signal, replicate 2: 1.91e7

gom (gomdanji) [DRSC04690]
- calcium entry signal, replicate 1: 4.41e7
- calcium entry signal, replicate 2: 5.84e7
- resting calcium signal, replicate 1: 2.03e7
- resting calcium signal, replicate 2: 2.52e7

CG5023 [DRSC15697]
- calcium entry signal, replicate 1: 3.74e7
- calcium entry signal, replicate 2: 4.29e7
- resting calcium signal, replicate 1: 4.82e7
- resting calcium signal, replicate 2: 1.90e7

moon (moonshiner) [DRSC19497]
- calcium entry signal, replicate 1: 4.01e7
- calcium entry signal, replicate 2: 5.21e7
- resting calcium signal, replicate 1: 1.99e7
- resting calcium signal, replicate 2: 2.27e7

CG31342 [DRSC15349]
- calcium entry signal, replicate 1: 3.45e7
- calcium entry signal, replicate 2: 4.20e7
- resting calcium signal, replicate 1: 1.45e7
- resting calcium signal, replicate 2: 1.84e7

CG31342 [DRSC16246]
- calcium entry signal, replicate 1: 1.99e7
- calcium entry signal, replicate 2: 2.96e7
- resting calcium signal, replicate 1: 1.05e7
- resting calcium signal, replicate 2: 5.51e7

CG15533 [DRSC15069]
- calcium entry signal, replicate 1: 3.05e7
- calcium entry signal, replicate 2: 4.66e7
- resting calcium signal, replicate 1: 1.65e7
- resting calcium signal, replicate 2: 1.96e7

CG9822 [DRSC04568]
- calcium entry signal, replicate 1: 5.04e7
- calcium entry signal, replicate 2: 4.28e7
- resting calcium signal, replicate 1: 2.64e7
- resting calcium signal, replicate 2: 2.07e7

uzip (unzipped) [DRSC04722]
- calcium entry signal, replicate 1: 3.45e7
- resting calcium signal, replicate 1: 1.66e7
